No constants are given. Whether binding was seen depends on the method and setting. Some entries that bind do so weakly or less than the wild type.

Chains of the proteins cited; added tags and fusions are not shown. Lines headed by an entry give the natural chain unless they say otherwise; changes in a name come on top. Residues count along the entry.
UniProt Q02763: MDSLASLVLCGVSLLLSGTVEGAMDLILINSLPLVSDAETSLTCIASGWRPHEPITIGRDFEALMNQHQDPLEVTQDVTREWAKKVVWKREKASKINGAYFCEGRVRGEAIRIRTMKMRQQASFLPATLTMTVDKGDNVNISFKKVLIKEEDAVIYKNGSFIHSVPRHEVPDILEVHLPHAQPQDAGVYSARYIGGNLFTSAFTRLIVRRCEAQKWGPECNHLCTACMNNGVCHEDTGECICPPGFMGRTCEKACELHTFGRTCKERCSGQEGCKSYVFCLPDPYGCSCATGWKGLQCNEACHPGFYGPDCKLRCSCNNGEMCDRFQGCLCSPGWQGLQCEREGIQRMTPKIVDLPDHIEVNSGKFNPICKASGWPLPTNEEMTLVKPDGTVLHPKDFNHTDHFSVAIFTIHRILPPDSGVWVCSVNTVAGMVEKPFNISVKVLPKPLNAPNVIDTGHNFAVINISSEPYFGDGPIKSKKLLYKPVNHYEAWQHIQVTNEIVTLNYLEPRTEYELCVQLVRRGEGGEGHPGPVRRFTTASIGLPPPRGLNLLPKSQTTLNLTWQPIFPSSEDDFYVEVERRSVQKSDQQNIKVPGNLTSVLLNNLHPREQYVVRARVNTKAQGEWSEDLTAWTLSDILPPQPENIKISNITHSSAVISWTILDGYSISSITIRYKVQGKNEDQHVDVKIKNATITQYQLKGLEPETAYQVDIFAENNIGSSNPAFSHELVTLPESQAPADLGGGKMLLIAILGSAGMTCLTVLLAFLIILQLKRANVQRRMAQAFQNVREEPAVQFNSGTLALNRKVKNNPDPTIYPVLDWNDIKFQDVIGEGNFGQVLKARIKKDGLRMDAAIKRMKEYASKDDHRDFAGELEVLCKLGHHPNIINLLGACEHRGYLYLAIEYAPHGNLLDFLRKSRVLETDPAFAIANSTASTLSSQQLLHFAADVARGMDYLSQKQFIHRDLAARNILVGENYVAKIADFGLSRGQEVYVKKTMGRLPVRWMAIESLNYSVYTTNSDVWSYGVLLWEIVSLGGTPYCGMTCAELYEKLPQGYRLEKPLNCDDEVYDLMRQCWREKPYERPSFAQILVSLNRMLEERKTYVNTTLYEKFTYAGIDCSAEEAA
UniProt O15123, residues 19-496: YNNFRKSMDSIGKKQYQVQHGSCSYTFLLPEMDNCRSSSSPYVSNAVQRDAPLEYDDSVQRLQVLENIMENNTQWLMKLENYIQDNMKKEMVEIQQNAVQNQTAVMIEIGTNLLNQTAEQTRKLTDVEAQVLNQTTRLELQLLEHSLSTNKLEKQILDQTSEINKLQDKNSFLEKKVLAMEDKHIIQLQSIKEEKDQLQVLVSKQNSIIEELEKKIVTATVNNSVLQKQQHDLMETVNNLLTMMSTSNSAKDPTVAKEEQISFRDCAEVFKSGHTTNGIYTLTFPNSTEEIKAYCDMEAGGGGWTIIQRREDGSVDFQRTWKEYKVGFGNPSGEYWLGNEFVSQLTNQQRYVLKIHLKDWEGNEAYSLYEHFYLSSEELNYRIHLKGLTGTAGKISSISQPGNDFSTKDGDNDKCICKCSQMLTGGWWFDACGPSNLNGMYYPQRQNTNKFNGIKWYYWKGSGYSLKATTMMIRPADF

Test [1] deals with recombinant his-tagged Tie2 ECD (Homo sapiens (Human)) (UniProt Q02763). Briefly: BLI, his-tagged Tie2 ECD on Ni-NTA biosensor, antibody pre-bound. Background: BLI is a label-free optical method that tracks binding on a fibre tip over time.
Test [2] shares this target. Briefly: BLI, his-tagged Tie2 ECD (100 nM) on Ni-NTA biosensor, buffer or anti-Tie2 antibody (100 nM), then Ang2 at 100 nM.

In the case of “Angiopoietin-2 (from UniProt O15123 19-496) (ligand)”, the binding entry in test [1] and in test [2] was “binds” throughout.

The record behind these values is patent US20210155697A1 (UNITY BIOTECHNOLOGY, published 2021).
